The supplement of paper PMC10849652
This is one part of the list.

Protein sequences, listed by entry. Tags and fused reporters are not part of them. Lines headed by an entry give the natural chain unless they say otherwise; changes in a name come on top.
UniProt Q9Y6R0: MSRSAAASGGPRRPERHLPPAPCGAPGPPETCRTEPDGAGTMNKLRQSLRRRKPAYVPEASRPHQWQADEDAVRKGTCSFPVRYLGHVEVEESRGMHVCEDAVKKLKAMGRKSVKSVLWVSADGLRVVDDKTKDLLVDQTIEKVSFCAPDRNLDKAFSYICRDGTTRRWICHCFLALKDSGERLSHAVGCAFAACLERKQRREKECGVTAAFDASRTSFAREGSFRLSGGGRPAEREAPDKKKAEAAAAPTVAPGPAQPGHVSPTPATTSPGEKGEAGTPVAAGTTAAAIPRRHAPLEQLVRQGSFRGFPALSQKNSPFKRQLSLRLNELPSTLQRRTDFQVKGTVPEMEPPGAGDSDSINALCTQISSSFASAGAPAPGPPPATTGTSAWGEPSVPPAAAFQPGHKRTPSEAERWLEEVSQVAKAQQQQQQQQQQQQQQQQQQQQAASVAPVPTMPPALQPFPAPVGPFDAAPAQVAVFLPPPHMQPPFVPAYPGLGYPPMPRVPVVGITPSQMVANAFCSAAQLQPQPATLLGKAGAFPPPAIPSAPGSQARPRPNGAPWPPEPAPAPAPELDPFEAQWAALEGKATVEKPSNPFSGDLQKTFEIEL
UniProt Q96P11: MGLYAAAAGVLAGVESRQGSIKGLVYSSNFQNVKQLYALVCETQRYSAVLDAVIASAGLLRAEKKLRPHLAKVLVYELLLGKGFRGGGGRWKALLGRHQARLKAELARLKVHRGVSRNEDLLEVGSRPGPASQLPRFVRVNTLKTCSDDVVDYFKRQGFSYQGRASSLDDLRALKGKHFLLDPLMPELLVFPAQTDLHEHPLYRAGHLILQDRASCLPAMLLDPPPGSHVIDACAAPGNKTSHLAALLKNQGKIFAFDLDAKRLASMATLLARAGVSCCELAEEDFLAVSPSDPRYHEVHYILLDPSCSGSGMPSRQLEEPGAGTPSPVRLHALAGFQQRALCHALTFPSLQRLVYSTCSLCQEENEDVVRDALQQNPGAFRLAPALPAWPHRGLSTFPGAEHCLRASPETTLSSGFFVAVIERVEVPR
UniProt Q9BZD4: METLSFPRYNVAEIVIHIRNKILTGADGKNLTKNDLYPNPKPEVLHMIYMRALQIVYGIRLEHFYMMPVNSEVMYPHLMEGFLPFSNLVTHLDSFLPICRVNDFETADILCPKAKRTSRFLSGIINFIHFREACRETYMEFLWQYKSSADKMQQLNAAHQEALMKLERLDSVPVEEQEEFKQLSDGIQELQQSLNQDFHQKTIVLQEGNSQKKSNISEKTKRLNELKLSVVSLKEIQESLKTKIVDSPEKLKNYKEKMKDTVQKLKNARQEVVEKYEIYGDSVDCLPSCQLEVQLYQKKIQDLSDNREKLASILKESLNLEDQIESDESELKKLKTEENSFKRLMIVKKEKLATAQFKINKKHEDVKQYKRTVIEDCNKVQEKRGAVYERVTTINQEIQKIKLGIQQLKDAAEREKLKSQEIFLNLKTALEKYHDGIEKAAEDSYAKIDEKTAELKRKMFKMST
UniProt A8MXV4: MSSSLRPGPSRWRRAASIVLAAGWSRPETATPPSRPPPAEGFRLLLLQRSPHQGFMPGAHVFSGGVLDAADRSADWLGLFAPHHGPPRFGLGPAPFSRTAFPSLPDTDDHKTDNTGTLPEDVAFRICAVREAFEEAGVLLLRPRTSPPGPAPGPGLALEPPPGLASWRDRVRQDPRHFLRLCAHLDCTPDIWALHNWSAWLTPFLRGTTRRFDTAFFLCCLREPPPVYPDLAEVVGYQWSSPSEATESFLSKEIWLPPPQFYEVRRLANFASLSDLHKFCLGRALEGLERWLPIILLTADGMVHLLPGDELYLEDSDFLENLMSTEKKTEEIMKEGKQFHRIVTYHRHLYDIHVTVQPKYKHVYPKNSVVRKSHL
UniProt O43929: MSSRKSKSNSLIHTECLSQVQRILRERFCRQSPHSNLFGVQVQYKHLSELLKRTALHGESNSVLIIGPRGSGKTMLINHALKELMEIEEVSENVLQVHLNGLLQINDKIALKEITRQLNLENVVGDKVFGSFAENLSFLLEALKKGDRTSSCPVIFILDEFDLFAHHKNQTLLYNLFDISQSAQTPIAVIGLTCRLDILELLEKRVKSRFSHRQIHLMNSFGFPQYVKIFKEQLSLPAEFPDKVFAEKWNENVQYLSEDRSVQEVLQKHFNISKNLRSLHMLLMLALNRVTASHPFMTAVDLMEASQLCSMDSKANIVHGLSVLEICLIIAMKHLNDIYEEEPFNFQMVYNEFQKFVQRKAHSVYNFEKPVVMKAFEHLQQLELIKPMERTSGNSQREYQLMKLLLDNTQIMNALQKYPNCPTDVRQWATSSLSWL
UniProt O15460: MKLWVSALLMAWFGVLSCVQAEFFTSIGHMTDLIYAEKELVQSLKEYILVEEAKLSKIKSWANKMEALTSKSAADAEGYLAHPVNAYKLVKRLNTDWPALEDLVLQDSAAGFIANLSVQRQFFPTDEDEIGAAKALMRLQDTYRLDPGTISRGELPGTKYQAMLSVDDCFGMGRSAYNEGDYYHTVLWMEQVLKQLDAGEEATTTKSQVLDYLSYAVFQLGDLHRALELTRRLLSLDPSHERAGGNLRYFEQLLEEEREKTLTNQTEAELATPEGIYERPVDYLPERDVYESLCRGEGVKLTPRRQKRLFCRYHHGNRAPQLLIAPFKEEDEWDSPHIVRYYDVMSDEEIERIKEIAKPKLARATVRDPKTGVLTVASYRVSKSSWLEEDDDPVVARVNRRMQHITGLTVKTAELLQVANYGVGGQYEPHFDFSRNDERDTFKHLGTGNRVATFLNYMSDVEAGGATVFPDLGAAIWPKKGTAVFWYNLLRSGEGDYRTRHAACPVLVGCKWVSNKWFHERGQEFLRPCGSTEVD
UniProt O60890: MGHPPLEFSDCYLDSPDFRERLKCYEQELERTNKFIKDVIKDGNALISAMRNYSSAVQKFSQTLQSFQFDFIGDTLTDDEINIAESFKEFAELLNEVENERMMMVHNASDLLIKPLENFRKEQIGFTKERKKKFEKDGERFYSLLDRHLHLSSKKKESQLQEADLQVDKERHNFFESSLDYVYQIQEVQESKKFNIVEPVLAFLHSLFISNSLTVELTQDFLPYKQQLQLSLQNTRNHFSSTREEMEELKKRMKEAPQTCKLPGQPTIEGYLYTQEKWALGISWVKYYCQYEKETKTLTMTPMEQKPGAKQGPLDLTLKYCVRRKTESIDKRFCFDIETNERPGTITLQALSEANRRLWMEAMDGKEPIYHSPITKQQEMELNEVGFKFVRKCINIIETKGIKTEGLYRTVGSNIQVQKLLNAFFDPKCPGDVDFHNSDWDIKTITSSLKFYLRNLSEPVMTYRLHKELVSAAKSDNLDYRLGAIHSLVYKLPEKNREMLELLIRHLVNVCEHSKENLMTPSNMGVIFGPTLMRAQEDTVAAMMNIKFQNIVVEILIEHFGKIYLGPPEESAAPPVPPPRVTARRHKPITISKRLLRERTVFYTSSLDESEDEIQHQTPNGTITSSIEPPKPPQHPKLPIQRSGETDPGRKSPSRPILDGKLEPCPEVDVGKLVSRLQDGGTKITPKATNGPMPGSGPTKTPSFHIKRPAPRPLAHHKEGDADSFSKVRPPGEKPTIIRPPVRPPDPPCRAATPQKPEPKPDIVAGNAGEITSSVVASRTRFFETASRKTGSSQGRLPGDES
UniProt Q6PK18: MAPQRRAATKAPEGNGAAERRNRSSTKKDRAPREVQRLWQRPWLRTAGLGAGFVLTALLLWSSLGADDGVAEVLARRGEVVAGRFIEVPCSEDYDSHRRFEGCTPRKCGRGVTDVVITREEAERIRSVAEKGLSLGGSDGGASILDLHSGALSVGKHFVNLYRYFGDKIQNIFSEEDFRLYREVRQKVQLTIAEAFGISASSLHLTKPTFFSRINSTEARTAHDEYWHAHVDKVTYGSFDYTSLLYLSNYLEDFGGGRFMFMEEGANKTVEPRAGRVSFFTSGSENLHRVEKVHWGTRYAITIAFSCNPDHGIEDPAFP
UniProt Q99571: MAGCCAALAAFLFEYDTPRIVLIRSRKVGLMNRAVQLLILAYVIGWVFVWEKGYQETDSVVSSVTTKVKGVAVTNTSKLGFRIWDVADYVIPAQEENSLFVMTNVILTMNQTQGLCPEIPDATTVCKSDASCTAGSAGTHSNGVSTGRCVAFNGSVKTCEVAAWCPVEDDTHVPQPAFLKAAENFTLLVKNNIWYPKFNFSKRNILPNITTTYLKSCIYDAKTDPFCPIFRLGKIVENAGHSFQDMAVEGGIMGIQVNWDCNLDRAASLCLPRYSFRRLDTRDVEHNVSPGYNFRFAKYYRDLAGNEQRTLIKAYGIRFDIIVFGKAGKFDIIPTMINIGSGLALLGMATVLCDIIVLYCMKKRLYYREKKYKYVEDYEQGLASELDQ
UniProt P07237: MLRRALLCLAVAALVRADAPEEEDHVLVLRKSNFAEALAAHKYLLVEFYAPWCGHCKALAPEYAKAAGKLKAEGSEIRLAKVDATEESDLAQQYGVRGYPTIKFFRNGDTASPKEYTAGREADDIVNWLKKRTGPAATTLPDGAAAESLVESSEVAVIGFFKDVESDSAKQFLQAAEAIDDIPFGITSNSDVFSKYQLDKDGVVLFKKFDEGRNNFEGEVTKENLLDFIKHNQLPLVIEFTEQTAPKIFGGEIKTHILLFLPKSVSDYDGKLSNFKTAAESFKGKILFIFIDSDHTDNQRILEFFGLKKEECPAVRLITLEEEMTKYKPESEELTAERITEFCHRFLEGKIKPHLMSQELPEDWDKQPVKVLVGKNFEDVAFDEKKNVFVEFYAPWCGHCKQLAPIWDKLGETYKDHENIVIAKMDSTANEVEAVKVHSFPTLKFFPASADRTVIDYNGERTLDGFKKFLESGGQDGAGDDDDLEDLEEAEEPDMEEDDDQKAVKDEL
UniProt Q13416: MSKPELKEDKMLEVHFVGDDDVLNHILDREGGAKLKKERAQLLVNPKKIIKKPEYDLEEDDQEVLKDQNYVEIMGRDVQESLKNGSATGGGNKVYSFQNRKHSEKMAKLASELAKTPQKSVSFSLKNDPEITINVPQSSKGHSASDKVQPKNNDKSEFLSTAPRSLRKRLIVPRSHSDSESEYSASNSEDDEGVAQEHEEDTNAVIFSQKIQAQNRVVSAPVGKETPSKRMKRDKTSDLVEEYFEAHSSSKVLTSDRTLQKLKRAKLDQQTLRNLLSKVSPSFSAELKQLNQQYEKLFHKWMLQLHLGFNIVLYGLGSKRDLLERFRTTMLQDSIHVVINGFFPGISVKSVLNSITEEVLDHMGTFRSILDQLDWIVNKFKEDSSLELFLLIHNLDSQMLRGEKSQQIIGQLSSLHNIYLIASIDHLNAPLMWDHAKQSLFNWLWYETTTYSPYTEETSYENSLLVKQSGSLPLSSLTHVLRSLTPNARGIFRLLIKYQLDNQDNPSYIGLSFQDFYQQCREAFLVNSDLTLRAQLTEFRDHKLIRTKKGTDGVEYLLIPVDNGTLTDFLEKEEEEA
UniProt P49902: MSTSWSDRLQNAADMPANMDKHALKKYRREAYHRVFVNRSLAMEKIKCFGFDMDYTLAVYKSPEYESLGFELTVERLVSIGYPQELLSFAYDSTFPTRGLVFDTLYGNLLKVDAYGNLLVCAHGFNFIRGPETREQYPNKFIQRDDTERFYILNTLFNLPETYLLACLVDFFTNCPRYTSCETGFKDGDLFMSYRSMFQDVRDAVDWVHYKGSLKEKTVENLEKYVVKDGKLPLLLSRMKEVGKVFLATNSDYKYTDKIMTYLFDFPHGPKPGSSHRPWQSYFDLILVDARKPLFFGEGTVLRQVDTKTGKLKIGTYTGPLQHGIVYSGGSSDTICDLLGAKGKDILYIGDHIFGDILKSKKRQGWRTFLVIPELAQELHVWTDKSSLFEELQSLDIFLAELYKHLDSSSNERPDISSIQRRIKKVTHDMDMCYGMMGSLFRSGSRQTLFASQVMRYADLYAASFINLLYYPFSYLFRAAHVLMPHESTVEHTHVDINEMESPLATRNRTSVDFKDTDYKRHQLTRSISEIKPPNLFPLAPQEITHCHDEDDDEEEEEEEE

Assays:
Test in all cases: log2 fold change, soluble protein after heating vs DMSO (PISA); higher = thermal stabilisation; K562 cells, 10 uM, 30 min; active = over 0.2 and 3.5 SD of the protein, either way, in both replicates (recomputed)
[1] = compound: Cc1ccc(NC(=O)c2ccc(CN3CC[C@H](N(C)C)C3)c(C(F)(F)F)c2)cc1Nc1nccc(-c2cncnc2)n1 [bafetinib]
Outline: (§1)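 K562 cells (2×10^6 cells/mL) were treated with 10 μM compound for 30 min, and aliquots were heated for 3 min over 48°C-58°C. Pooled aliquots were extracted in PBS with 0.5% NP-40 at 4°C, and the supernatant after 21,000xg for 90 min was measured by TMTpro 16plex LC-MS/MS with channel sums equalised. Reported thermal stability, relative to control samples and from duplicates, is a log2 fold change.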

[2] = compound: Cc1cccc(CC(=O)N2CCc3c2ccc(-c2cn(C)c4ncnc(N)c24)c3F)n1
Outline: as §1

[3] = compound: Cc1cn(-c2cc(NC(=O)c3ccc(C)c(Nc4nccc(-c5cccnc5)n4)c3)cc(C(F)(F)F)c2)cn1 [nilotinib]
Outline: as §1

[4] = compound: Cc1nc(Nc2n[nH]c3c2CN(C(=O)N[C@H](CN(C)C)c2ccccc2)C3(C)C)c2sccc2n1
Outline: as §1

[5] = compound: Cc1nc(Nc2ncc(C(=O)Nc3c(C)cccc3Cl)s2)cc(N2CCN(CCO)CC2)n1 [dasatinib]
Outline: as §1

[6] = compound: Cc1ncc(-c2ccnc(Nc3ccc(S(C)(=O)=O)cc3)n2)n1C(C)C
Outline: as §1

[7] = compound: Cn1cc(-c2ccc3c(c2)CCN3C(=O)Cc2cccc(C(F)(F)F)c2)c2c(N)ncnc21
Outline: as §1

[8] = compound: Cn1cc(-c2ccc3nnc(C(F)(F)c4ccc5ncccc5c4)n3n2)cn1
Outline: as §1

[9] = compound: Cn1cncc1[C@@](N)(c1ccc(Cl)cc1)c1ccc2c(c1)c(-c1cccc(Cl)c1)cc(=O)n2C [tipifarnib]
Outline: as §1

[10] = compound: FC(F)(F)c1ccc(/C=C/c2nc(COc3ccc(CCCCn4ccnn4)cc3)co2)cc1 [mubritinib]
Outline: as §1

[11] = compound: NC(=O)Nc1cc(-c2cccc(F)c2)sc1C(=O)N[C@H]1CCCNC1
Outline: as §1

[12] = compound: NC(=O)c1cnc(N[C@@H]2CCCC[C@@H]2N)nc1Nc1cccc(-n2nccn2)c1
Outline: as §1

[13] = compound: NC1(c2ccc(-c3nc4ccn5c(=O)[nH]nc5c4cc3-c3ccccc3)cc2)CCC1
Outline: as §1

[14] = compound: NCC(=O)Nc1ccc(-n2nc(C(F)(F)F)cc2-c2ccc3c(ccc4ccccc43)c2)cc1
Outline: as §1

[15] = compound: Nc1ccccc1NC(=O)c1ccc(CNC(=O)OCc2cccnc2)cc1 [entinostat]
Outline: as §1

[16] = compound: O=C(CCCCCCC(=O)Nc1ccccc1)NO [vorinostat]
Outline: as §1

[17] = compound: O=C(O)c1ccc2c(c1)nc(Nc1cccc(Cl)c1)c1ccncc12 [silmitasertib]
Outline: as §1

[18] = compound: O=C1NC(=O)C(c2cnc3ccccn23)=C1c1cn2c3c(cc(F)cc13)CN(C(=O)N1CCCCC1)CC2
Outline: as §1

[19] = compound: O=C(CCCCCCNC(=O)c1cnc(N(c2ccccc2)c2ccccc2Cl)nc1)NO [citarinostat]
Outline: as §1

[20] = compound: c1cc(OCCN2CCCCC2)cc(-c2n[nH]c3ccc(-c4nnc[nH]4)cc23)c1
Outline: as §1

Measured: log2 fold change

NUMBL (UniProt Q9Y6R0)
inactive: [1] -0.002 | [2] 0.113 | [3] -0.001 | [4] -0.136 | [5] -0.029 | [6] 0.027 | [7] 0.041 | [8] 0.097 | [9] 0.068 | [10] 0.28 | [11] -0.101 | [12] 0.016 | [13] -0.154 | [14] 0.002 | [15] 0.01 | [16] 0.078 | [17] -0.037 | [18] 0.016

NSUN5 isoform 2 (UniProt Q96P11)
inactive: [1] -0.004 | [2] -0.018 | [3] 0.001 | [4] -0.035 | [5] -0.016 | [6] -0.083 | [7] -0.079 | [8] 0.125 | [9] -0.037 | [10] -0.071 | [11] -0.002 | [12] 0.103 | [13] -0.137 | [14] 0.054 | [15] 0.06 | [16] 0.07 | [19] -0.015 | [17] -0.107 | [18] 0.125 | [20] -0.083

NUDT5 (UniProt C9JYY9)
inactive: [1] -0.285 | [2] -0.117 | [5] 0.054 | [7] 0.03 | [11] -0.285 | [12] -0.344 | [14] -0.283 | [15] -0.193 | [16] -0.22 | [18] -0.349

NUF2 (UniProt Q9BZD4)
inactive: [1] 0.206 | [2] -0.162 | [3] -0.051 | [4] -0.133 | [5] -0.08 | [6] -0.061 | [7] -0.094 | [9] -0.079 | [10] -0.184 | [12] 0.043 | [13] 0.199 | [14] 0.148 | [16] 0.168 | [17] 0.356 | [18] 0.183

NUDT19 (UniProt A8MXV4)
inactive: [1] -0.066 | [2] -0.013 | [3] 0.024 | [4] 0.01 | [5] -0.029 | [6] -0.011 | [7] 0.003 | [8] -0.041 | [9] -0.116 | [10] 0.049 | [11] -0.041 | [12] -0.018 | [13] -0.019 | [14] -0.015 | [15] -0.016 | [16] -0.015 | [19] 0.063 | [17] -0.016 | [18] -0.069 | [20] -0.01

ORC4 (UniProt O43929)
inactive: [1] -0.023 | [2] 0.007 | [3] -0.094 | [4] -0.077 | [5] -0.237 | [6] -0.031 | [7] 0.012 | [8] -0.051 | [9] 0.012 | [10] 0.038 | [11] -0.026 | [12] -0.007 | [13] -0.15 | [14] -0.072 | [15] 0.087 | [16] 0.19 | [19] 0.16 | [17] -0.046 | [18] 0.028 | [20] -0.054

P4HA2 (UniProt O15460)
inactive: [1] 0.012 | [2] -0.007 | [3] 0.056 | [4] 0.04 | [5] -0.057 | [6] -0.008 | [7] -0.102 | [8] -0.02 | [9] 0.007 | [10] -0.059 | [11] -0.034 | [13] -0.129 | [14] 0.063 | [15] -0.104 | [16] -0.047 | [19] -0.019 | [17] 0.025 | [18] 0.201 | [20] -0.021

OPHN1 (UniProt O60890)
inactive: [1] -0.035 | [2] -0.134 | [3] -0.088 | [4] 0.051 | [5] -0.04 | [6] 0.093 | [7] 0.028 | [8] 0.099 | [10] 0.035 | [11] 0.073 | [12] -0.134 | [13] -0.056 | [15] -0.084 | [16] 0.128 | [19] 0.021 | [17] 0.031 | [18] -0.046 | [20] 0.094

OGFOD3 isoform 2 (UniProt Q6PK18)
inactive: [1] 0.012 | [2] -0.021 | [3] 0.085 | [4] -0.015 | [5] 0.041 | [6] 0.02 | [7] 0.018 | [9] 0.025 | [10] -0.012 | [11] -0.089 | [12] 0.035 | [13] -0.192 | [14] -0.018 | [15] -0.072 | [16] -0.063 | [19] -0.068 | [17] -0.028 | [18] -0.023 | [20] -0.052

P2RX4 isoform 2 (UniProt Q99571)
inactive: [1] 0.01 | [3] 0.012 | [4] 0.113 | [5] -0.025 | [6] -0.036 | [7] 0.042 | [8] 0.145 | [9] -0.059 | [10] 0.095 | [11] -0.035 | [12] 0.004 | [13] -0.178 | [14] 0.346 | [15] -0.065 | [17] 0.162 | [18] 0.093

P4HB (UniProt P07237)
inactive: [1] -0.045 | [2] -0.044 | [3] -0.02 | [4] 0.006 | [5] 0.049 | [6] -0.023 | [7] -0.011 | [8] 0.026 | [9] 0.075 | [10] -0.009 | [11] -0.004 | [12] 0.001 | [13] -0.021 | [14] 0.007 | [15] -0.013 | [16] -0.043 | [19] -0.018 | [17] -0.005 | [18] -0.049 | [20] -0.044

ORC2 (UniProt Q13416)
inactive: [1] -0.085 | [2] 0.037 | [3] 0.036 | [4] 0.034 | [6] 0.127 | [8] 0.012 | [9] -0.058 | [10] 0.018 | [11] 0.007 | [13] -0.045 | [15] 0.078 | [16] 0.204 | [19] -0.017 | [17] 0.176 | [18] -0.058 | [20] -0.042

NT5C2 (UniProt P49902)
inactive: [1] -0.012 | [2] -0.038 | [3] 0.048 | [4] -0.029 | [5] 0.036 | [6] -0.013 | [7] 0.065 | [8] 0.024 | [9] 0 | [10] 0.034 | [11] 0.061 | [12] 0.006 | [13] 0.009 | [14] 0.007 | [15] -0.04 | [16] -0.003 | [19] 0.073 | [17] -0.043 | [18] -0.011 | [20] 0.005
